Publication doi:10.1101/2025.08.11.669663
These are yes or no findings as the source states them, for the method shown. Binding seen in cells or lysates may run through a third protein. Some results given as binding are weak or reduced against the parent protein; the word gives no strength.

Amino acid sequences for entries named in this document (tags omitted).
UniProt P00441: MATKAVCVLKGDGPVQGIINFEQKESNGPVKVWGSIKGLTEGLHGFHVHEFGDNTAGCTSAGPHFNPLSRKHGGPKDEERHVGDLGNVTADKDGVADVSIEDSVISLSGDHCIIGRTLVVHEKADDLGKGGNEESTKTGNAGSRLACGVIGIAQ
UniProt P12004: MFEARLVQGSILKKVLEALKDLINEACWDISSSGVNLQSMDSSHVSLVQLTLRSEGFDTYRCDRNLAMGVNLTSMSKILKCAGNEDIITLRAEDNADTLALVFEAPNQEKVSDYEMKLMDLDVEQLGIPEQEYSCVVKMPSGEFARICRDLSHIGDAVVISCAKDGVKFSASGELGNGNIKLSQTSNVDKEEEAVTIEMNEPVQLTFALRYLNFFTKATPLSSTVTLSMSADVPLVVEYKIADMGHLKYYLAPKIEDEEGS
UniProt P52701: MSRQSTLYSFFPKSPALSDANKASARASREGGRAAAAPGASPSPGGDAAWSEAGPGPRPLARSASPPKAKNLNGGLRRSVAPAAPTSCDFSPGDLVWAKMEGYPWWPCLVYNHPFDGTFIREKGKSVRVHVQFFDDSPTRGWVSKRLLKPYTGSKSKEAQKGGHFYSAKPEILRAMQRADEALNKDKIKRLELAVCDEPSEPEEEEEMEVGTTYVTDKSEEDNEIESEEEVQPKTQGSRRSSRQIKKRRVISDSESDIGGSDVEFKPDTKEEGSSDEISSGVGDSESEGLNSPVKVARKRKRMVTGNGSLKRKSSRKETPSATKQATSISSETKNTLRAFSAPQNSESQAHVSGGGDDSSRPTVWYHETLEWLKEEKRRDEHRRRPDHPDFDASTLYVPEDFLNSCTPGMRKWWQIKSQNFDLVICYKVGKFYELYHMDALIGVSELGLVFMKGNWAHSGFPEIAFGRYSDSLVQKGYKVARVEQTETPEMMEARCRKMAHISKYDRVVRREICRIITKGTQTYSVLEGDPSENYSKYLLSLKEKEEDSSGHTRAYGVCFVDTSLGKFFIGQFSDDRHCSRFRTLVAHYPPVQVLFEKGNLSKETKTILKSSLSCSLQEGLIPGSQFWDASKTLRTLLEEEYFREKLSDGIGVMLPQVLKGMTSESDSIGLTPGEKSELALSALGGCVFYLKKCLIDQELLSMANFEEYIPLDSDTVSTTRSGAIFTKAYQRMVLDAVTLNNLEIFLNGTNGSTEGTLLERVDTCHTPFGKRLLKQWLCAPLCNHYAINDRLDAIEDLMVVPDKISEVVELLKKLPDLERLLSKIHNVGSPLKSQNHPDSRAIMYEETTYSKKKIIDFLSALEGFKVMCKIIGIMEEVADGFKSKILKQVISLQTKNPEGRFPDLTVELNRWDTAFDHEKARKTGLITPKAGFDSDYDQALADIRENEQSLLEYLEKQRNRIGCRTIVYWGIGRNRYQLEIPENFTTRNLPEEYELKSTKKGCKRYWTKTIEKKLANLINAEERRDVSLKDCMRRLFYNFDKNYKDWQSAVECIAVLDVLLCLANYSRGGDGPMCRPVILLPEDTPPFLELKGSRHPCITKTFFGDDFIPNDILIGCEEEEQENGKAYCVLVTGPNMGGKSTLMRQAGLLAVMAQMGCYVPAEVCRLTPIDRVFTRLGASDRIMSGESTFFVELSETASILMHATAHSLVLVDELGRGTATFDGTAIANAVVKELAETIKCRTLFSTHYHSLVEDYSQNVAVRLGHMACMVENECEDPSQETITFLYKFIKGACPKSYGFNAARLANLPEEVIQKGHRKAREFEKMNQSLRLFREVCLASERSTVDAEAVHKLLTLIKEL
UniProt P49736: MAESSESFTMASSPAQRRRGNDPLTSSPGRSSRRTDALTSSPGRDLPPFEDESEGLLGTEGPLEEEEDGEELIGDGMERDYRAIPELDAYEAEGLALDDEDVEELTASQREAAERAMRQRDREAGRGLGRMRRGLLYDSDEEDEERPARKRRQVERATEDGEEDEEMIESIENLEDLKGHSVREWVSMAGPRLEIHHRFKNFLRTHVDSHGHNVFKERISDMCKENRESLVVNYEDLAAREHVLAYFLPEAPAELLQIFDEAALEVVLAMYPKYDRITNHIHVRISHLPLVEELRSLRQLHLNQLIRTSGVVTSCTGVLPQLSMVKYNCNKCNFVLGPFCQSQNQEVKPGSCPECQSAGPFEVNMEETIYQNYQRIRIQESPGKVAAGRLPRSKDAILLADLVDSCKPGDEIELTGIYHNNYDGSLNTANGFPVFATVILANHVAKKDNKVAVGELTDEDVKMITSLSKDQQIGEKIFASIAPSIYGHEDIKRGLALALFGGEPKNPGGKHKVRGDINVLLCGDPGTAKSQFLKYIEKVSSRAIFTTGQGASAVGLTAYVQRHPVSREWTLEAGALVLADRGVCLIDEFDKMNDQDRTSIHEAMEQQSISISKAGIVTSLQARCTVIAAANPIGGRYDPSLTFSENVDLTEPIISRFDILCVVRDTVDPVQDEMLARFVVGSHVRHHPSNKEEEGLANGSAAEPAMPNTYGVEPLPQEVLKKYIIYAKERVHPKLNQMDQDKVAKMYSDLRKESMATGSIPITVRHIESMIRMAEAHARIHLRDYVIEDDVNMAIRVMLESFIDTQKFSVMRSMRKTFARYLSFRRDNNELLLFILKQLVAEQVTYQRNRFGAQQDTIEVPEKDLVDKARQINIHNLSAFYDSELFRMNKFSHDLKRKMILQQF
UniProt P28340: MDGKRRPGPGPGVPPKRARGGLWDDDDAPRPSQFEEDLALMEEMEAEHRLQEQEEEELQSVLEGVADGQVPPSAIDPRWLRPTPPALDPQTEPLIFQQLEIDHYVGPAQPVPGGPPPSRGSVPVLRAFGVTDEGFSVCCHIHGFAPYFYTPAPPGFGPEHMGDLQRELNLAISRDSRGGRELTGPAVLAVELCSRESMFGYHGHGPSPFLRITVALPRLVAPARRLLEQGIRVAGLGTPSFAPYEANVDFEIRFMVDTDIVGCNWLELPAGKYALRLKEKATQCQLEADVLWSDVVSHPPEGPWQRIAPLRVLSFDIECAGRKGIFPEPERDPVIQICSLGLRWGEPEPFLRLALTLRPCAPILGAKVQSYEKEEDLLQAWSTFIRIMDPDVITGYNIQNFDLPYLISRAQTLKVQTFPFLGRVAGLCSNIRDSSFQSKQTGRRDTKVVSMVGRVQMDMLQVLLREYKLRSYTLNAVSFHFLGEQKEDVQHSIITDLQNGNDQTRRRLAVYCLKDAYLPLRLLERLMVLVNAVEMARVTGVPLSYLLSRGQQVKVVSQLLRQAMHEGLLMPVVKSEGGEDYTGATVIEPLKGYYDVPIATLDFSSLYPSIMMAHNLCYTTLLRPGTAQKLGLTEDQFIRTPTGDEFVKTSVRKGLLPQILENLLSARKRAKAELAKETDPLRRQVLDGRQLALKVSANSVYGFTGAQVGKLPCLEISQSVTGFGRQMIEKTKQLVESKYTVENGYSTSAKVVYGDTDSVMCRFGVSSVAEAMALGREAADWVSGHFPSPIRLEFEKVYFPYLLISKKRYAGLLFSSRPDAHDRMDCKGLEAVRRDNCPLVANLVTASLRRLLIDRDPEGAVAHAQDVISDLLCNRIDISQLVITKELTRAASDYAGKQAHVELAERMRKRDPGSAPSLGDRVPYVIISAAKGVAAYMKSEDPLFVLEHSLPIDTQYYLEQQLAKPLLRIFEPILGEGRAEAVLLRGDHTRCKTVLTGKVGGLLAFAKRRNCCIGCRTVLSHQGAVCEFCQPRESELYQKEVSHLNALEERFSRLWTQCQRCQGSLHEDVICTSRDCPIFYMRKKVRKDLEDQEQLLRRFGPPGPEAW

Legend:
Test in all cases: proximity ligation
[1] = target: Cu/Zn superoxide dismutase (SOD1) (human (endogenous in HeLa)) (UniProt P00441)
[2] = target: T1, catalase (CAT) (human (endogenous in HeLa)) (UniProt P04040)
T1 sequence: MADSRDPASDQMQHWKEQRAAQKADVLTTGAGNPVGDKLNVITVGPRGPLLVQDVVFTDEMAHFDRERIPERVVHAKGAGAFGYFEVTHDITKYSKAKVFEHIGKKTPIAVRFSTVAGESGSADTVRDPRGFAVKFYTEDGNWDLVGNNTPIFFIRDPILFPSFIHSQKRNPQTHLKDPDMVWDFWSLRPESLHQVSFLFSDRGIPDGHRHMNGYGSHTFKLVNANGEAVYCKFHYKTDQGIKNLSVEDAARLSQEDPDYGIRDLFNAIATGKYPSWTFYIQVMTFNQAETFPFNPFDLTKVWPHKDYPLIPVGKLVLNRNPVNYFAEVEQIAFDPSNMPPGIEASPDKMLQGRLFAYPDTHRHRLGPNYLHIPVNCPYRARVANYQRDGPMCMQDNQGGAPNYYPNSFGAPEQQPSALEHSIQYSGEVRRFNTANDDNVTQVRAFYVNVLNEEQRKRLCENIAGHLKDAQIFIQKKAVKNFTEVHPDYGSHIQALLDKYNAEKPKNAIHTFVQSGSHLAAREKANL

[3] = target: T2, peroxiredoxin 2 (PRDX2) (human (endogenous in HeLa)) (UniProt P32119)
T2 sequence: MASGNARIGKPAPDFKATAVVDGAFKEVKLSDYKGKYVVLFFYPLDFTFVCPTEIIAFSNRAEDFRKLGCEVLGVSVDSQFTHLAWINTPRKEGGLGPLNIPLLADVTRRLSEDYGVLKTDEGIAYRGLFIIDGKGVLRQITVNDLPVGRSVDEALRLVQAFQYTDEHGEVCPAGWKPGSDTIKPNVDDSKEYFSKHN

| binding [1] | binding [2] | binding [3] | Substance |
| --- | --- | --- | --- |
| binds | binds |  | PCNA (from UniProt P12004 1-261) |
| binds | binds | binds | MSH6 (from UniProt P52701 1-1360) |
| binds |  |  | MCM2 (from UniProt P49736 1-904) |
| binds | binds | binds | POLD1 (a DNA polymerase subunit) (from UniProt P28340 1-1107) |
